# Values quoted from earlier work as cited in patent publication US20210077461A1, “NEW USE” (Novartis AG, priority 2013, published 2021).
# At least one compound was matched to its structure with a doubt left.
# Test system: patients with heart failure
# Conditions: CHARM-Added trial; cited from earlier work
smiles,measurement,value
CCOc1nc2cccc(C(=O)O)c2n1Cc1ccc(-c2ccccc2-c2nnn[nH]2)cc1 [candesartan],Annual event rate for the composite of CV death or heart failure hospitalization,14.1%
